Data: PubChem BioAssay AID1671190 (National Center for Advancing Translational Sciences (NCATS), 2021)
The whole screen tested about 580,000 compounds, of which about 6,100 (1.1%) were called active. Inconclusive results, whose numbers are uncertain, are shown with a selection of clear calls. Calls follow the shape of the dose curve; as a rule, active = well fitted inhibition curve with a large enough effect; inconclusive = small, poorly fitted or top-dose-only effect, or another doubt; inactive = no such curve, though single readings can be large or run the other way. Potencies beside an inconclusive call are fits to weak or partial responses and may not hold up.
% is scaled to controls: 0 for no effect and ±100 for the full control effect; potency is read from the fitted curve at half-maximal effect.

Sequences of proteins named here, by UniProt entry; tags and fusion partners are left off.
UniProt P18054, whole entry, looked up: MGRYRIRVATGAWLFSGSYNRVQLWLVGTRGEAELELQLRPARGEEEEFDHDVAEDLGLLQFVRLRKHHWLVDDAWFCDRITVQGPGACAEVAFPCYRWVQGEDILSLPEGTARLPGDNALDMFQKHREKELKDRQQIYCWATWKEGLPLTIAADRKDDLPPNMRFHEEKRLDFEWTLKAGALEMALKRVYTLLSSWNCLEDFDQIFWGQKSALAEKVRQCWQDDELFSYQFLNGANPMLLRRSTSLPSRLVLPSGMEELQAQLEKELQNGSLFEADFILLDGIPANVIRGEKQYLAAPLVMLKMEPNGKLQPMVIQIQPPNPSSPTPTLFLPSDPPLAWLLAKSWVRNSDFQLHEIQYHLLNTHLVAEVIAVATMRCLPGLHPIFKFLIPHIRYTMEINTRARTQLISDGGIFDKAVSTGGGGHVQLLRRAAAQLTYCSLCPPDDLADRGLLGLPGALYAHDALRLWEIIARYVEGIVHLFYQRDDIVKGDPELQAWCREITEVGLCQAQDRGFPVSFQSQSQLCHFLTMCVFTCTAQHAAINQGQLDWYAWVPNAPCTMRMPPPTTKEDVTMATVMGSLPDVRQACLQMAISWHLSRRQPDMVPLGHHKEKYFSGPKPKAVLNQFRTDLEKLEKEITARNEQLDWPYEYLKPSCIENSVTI

The compounds below were run against Polyunsaturated fatty acid lipoxygenase ALOX12 (Homo sapiens) (UniProt P18054) (assay: Primary qHTS assay for inhibitors of human arachidonate 12S-lipoxygenase (ALOX12): Round 2). Conditions: purified 12hLO, xylenol orange hydroperoxide absorbance; activity change, negative = inhibition: at 108 µM (top of the series) unless noted.
Procedure, shortened: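 Purified human 12hLO at 150 nM in 25 mM Hepes, 0.01% Triton X-100, pH 7.0, preincubated 15 min at room temperature with compound. Reaction started with 40 uM arachidonic acid, 30 min at room temperature. Hydroperoxide measured by Fe-xylenol orange, 573/405 nm absorbance ratio.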
For `COc1ccc(-c2cc(C(=O)O)c3ccccc3n2)cc1`, the Potency was inconclusive: 44.7 µM [inhibitor, partial curve, poor fit]. For `CN(CC(=O)Nc1ccc(N2CCOCC2)cc1)Cc1c(O)ccc2ccccc12`, the Potency was inconclusive: 3.98 µM [inhibitor, full curve, poor fit]. With `CN(C)[C@@H]1CNCC[C@@H]1CO` the Potency was inconclusive: 6.31 µM [inhibitor, full curve]. For `Cc1ccc(-n2nnnc2CNC(=O)Nc2ccc3c(c2)OCO3)cc1`, the Potency was inconclusive: 100 µM [inhibitor, single point]. For `O=C(O)/C=C/C(=O)NNc1ccc([N+](=O)[O-])cc1`, the Potency was inconclusive: 3.55 µM [inhibitor, full curve, poor fit]. For `N#C/C(=C\C=C\c1ccco1)C(=O)NC1CC1`, the Potency was inconclusive: 17.8 µM [inhibitor, full curve, poor fit]. With `Clc1ccc(-c2cc(CN3CCOCC3)no2)cc1` the “activity change, negative = inhibition” value was inactive: 8.48%. In the case of `COc1ccc(C(C#N)=C2C=CC(=NO)C(C)=C2Cl)cc1`, the Potency is reported as active: 20 µM. For `COc1ccccc1NS(=O)(=O)c1cc(NC(=O)c2ccc(Cl)nc2)ccc1Cl`, the “activity change, negative = inhibition” value was inactive: -1.34%. In the case of `Cc1ccc(C(=O)NCC(=O)OCC(=O)Nc2ccc3[nH]c(=O)[nH]c3c2)cc1`, the “activity change, negative = inhibition” value is reported as inactive: -16.4%. For `Cc1ccc(-c2cnc(CCC(=O)NCc3ccccc3F)o2)cc1C`, the Potency was inconclusive: 39.8 µM [inhibitor, partial curve]. In the case of `O=C(NC1CCCCCCC1)C1CCN(Cc2nc(-c3ccccc3)no2)CC1`, the Potency is reported as inconclusive: 100 µM [inhibitor, single point]. For `c1ccc(C(CCNc2ncncn2)c2ccco2)cc1` (stereo unspecified), the “activity change, negative = inhibition” value was inactive: 29.7%. With `CCN1CCN(C(=O)c2cc(-c3ccc(C)cc3)cn2CC)CC1` the Potency was inconclusive: 25.1 µM [inhibitor, partial curve]. For `O=C(O)c1ccc(C=NN=Cc2ccco2)cc1`, the Potency was inconclusive: 35.5 µM [inhibitor, partial curve, poor fit]. In the case of `Cc1ccc(S(=O)(=O)NC(C)(C)CSc2nncn2N)cc1`, the Potency is reported as inconclusive: 63.1 µM [inhibitor, partial curve, poor fit]. For `CSc1cccc(N2CC(C(=O)N(CC(C)C)c3c(N)n(Cc4ccccc4)c(=O)[nH]c3=O)CC2=O)c1` (stereo unspecified), the Potency was inconclusive: 44.7 µM [inhibitor, partial curve, poor fit]. In the case of `Cc1scc(C(=O)NCc2ccco2)c1-c1ccccc1`, the Potency is reported as inconclusive: 39.8 µM [inhibitor, partial curve]. In the case of `Cn1c(=O)[nH]c(=O)c2[nH]c(CO)nc21`, the Potency is reported as inconclusive: 44.7 µM [inhibitor, partial curve, poor fit]. For `CCC(=O)Nc1ccc(Cl)c(-c2nc3ccc(C)cc3o2)c1`, the Potency was inconclusive: 56.2 µM [inhibitor, partial curve, poor fit]. For `CC(=O)C1=CCC(c2ccccc2F)N(S(=O)(=O)c2ccc(C)cc2)C1` (stereo unspecified), the Potency was inconclusive: 44.7 µM [inhibitor, partial curve, poor fit]. For `CCNc1nc2ccccc2nc1C(C#N)S(=O)(=O)c1ccc(C)cc1` (stereo unspecified), the Potency was inconclusive: 50.1 µM [inhibitor, partial curve, poor fit]. With `COc1ccc(OC)c(NC(=O)c2cc3cc4ccc(C)cc4nc3s2)c1` the “activity change, negative = inhibition” value was inactive: -4.86%. With `C[C@@H](NC(=O)C[C@@H]1C[C@@H]2c3cc(NS(=O)(=O)c4ccc(F)cc4)ccc3O[C@@H]2[C@@H](CO)O1)c1ccccc1` the Potency was inconclusive: 44.7 µM [inhibitor, partial curve]. In the case of `COC(=O)c1sc(=S)n(-c2ccc(Br)cc2)c1N`, the Potency is reported as active: 11.2 µM. `CC(C)(C)c1ccc(C(=O)NNC(=S)NCc2ccco2)cc1` was tested, and the “activity change, negative = inhibition” value was inactive: 114%. For `CCOc1ccc(NC(=O)c2cccc(-n3cnnn3)c2)cc1`, the Potency was inconclusive: 39.8 µM [inhibitor, partial curve, poor fit]. In the case of `Cc1ccc2c(c1)[C@H]1[C@H](CO2)[C@H](c2ccccc2)[C@]2(C)C(=O)N(Cc3ccco3)CC(=O)N12`, the Potency is reported as inconclusive: 50.1 µM [inhibitor, partial curve, poor fit]. `COc1cccc(C(=O)NCCC2CCN(C(=O)Nc3cccc(C)c3)CC2)c1` was tested, and the “activity change, negative = inhibition” value was inactive: 47.3%. For `CCOC(=O)c1cnc(SCc2cccc(C)c2)nc1N`, the “activity change, negative = inhibition” value was inactive: 40%. With `O=C(N[C@@H](Cc1ccccc1)C(=O)O)c1cccnc1` the “activity change, negative = inhibition” value was inactive: -15.7%. For `O=C(O)c1ccc(Nc2ncnc3ccccc23)cc1`, the Potency was inconclusive: 0.447 µM [inhibitor, full curve, poor fit]. With `CC(C)CC(c1nnnn1C1CCCCC1)N1CCN(C(=O)c2ccco2)CC1` (stereo unspecified) the Potency was inconclusive: 35.5 µM [inhibitor, partial curve, poor fit]. In the case of `Nc1ccn([C@@H]2O[C@H](CNCC3=CCOc4ccc(O)cc43)[C@@H](O)[C@H]2O)c(=O)n1`, the Potency is reported as inconclusive: 70.8 µM [inhibitor, partial curve, poor fit]. `C=CCN1CC2(CCC1=O)CCN(C(=O)C1CC=CCC1)CC2` (stereo unspecified) was tested, and the “activity change, negative = inhibition” value was inactive: 12.6%. For `O=C(CSc1ncnc2sc3c(c12)CCC3)Nc1ccc(F)cc1`, the Potency was inconclusive: 10 µM [inhibitor, full curve, poor fit]. In the case of `CC(C)CCNC1=NCCCCC1`, the “activity change, negative = inhibition” value is reported as inactive: 6.11%. `COc1cc(C(=O)Nc2ccc(S(=O)(=O)N3CCc4ccccc43)cc2)cc(OC)c1OC` was tested, and the Potency was inconclusive: 56.2 µM [inhibitor, partial curve, poor fit]. With `Cc1cccc(NS(=O)(=O)c2ccc3c(c2)CCN3S(C)(=O)=O)c1C` the “activity change, negative = inhibition” value was inactive: -7.63%. For `Cc1cccc(/C=C/C(=O)c2ccc([N+](=O)[O-])o2)c1`, the Potency was inconclusive: 5.01 µM [inhibitor, partial curve, poor fit]. In the case of `C=CCOc1cccc(C2C(C(=O)c3ccco3)=C(O)C(=O)N2Cc2cccnc2)c1` (stereo unspecified), the Potency is reported as inconclusive: 100 µM [inhibitor, partial curve, poor fit]. For `Cc1ccc(N2CC(C(=O)N3CCC(C(=O)Nc4nnc(C(C)C)s4)CC3)CC2=O)cc1` (stereo unspecified), the Potency was inconclusive: 112 µM [inhibitor, partial curve, poor fit]. `COc1ccccc1OCCn1cc(/C=C(\C#N)C(=O)NCc2cccs2)c2ccccc21` was tested, and the “activity change, negative = inhibition” value was inactive: 13.6%. With `Cc1ccc(S(=O)(=O)Nc2ccc(Nc3ccc([N+](=O)[O-])cc3[N+](=O)[O-])cc2)cc1` the Potency was inconclusive: 7.94 µM [inhibitor, full curve, poor fit]. With `CCOC(=O)N1CCC(NC(=O)c2ccc3c(c2)N(Cc2ccc(Cl)cc2)C(=O)c2ccccc2S3=O)CC1` (stereo unspecified) the Potency was inconclusive: 5.01 µM [inhibitor, full curve, poor fit]. In the case of `O=C(/C=C/c1c(Cl)cccc1Cl)c1cccc(O)c1`, the Potency is reported as inconclusive: 44.7 µM [inhibitor, partial curve, poor fit]. In the case of `O=C(O)/C(=C\c1ccc(Br)cc1)Sc1nc2ccccc2s1`, the Potency is reported as active: 8.91 µM. For `CCCN(CCO)Cc1ccc(F)c(Br)c1`, the Potency was inconclusive: 0.631 µM [inhibitor, full curve, poor fit]. With `CSCC[C@H](NC(=O)Cc1c(C)c2cc3c(C)c(C)oc3cc2oc1=O)C(=O)N[C@@H](C(=O)O)c1ccccc1` the Potency was inconclusive: 50.1 µM [inhibitor, partial curve, poor fit]. With `Cc1oc(-c2ccc(Cl)cc2)nc1CN1CCCC(C(=O)NCc2ccco2)C1` (stereo unspecified) the Potency was inconclusive: 56.2 µM [inhibitor, partial curve, poor fit]. In the case of `Cc1ccc(/C=N/NC(=O)CCc2ccccc2)cc1`, the Potency is reported as inconclusive: 50.1 µM [inhibitor, partial curve, poor fit]. With `COc1ccc(S(=O)(=O)NC(=O)C2(C)CCN2C(=O)CCC2CCCC2)cc1OC` (stereo unspecified) the Potency was inconclusive: 44.7 µM [inhibitor, partial curve, poor fit]. In the case of `O=C(O)c1ccccc1NCCO`, the “activity change, negative = inhibition” value is reported as inactive: -4.18%. `O=C1NC2(CCCC2)C(=O)N1Cc1coc(-c2ccc(Cl)cc2)n1` was tested, and the Potency was inconclusive: 39.8 µM [inhibitor, partial curve, poor fit]. With `CC1Oc2ccc(NC(=O)c3ccc(F)cc3)cc2CN(Cc2ccc3c(c2)OCO3)C1=O` (stereo unspecified) the Potency was inconclusive: 7.08 µM [inhibitor, full curve]. For `COc1ccc(CN2C(=O)C(n3c(C)ccc3C)c3cc(F)ccc32)cc1` (stereo unspecified), the Potency was inconclusive: 39.8 µM [inhibitor, partial curve]. With `COc1ccc(S(=O)(=O)NNC(=O)c2csc(-n3nc(C)cc3C(F)(F)F)n2)cc1OC` the Potency was inconclusive: 25.1 µM [inhibitor, partial curve, poor fit]. In the case of `CCCNc1nc(-c2[nH]c(C)c(C(C)=O)c2C)cs1`, the Potency is reported as inconclusive: 25.1 µM [inhibitor, full curve, poor fit]. `Cc1ccc(C(=O)CSc2nc(-c3ccccc3)ccc2C#N)cc1` was tested, and the “activity change, negative = inhibition” value was inactive: -5.38%. With `N#Cc1ccc(C(=O)N(Cc2ccccc2)c2ccccc2)cc1` the “activity change, negative = inhibition” value was inactive: -0.217%. In the case of `Cc1onc(-c2ccccc2)c1-c1nnc(CSc2nnnn2C(C)C)o1`, the “activity change, negative = inhibition” value is reported as inactive: -5.81%. In the case of `CCOC(=O)N1CCc2c(sc3c2c(=O)n(-c2ccc(CC)cc2)c(=O)n3Cc2cc(C)ccc2C)C1`, the “activity change, negative = inhibition” value is reported as inactive: 0%. For `COc1ccc(C(=O)/C=C/NCc2ccc(C)cc2)cc1`, the Potency was inconclusive: 56.2 µM [inhibitor, partial curve, poor fit]. In the case of `COC(=O)C1C(=O)NCC1c1ccccc1` (stereo unspecified), the Potency is reported as inconclusive: 89.1 µM [inhibitor, partial curve, poor fit]. For `FC(F)Oc1ccc(NC(=S)NCc2ccccc2)cc1Cl`, the Potency was inconclusive: 10 µM [inhibitor, partial curve, poor fit]. With `COc1cc(CN(C)Cc2ccccc2)cc(OC)c1O` the Potency was inconclusive: 35.5 µM [inhibitor, single point].
